## Drug screen on melanoma cell lines: apoptosis marker

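The test systems are human melanoma cell lines, treated with a pair of drugs for 72 h and then stained and imaged. Values are the share of nuclei positive for cleaved PARP as a percentage of the same share in the DMSO control: 100 is the control level, higher means more apoptosis. Concentrations were fixed for each drug; these are the higher of two levels. No replicate spread is given; individual values may be noisy. Basal and induced levels differ widely between cell lines.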
An unselected part of the screen is shown.
An entry leaves out what has no value listed here.
A dash means that no value is listed here.

Compounds and concentrations:
palbociclib (0.2 µM): CC(=O)c1c(C)c2cnc(Nc3ccc(N4CCNCC4)cn3)nc2n(C2CCCC2)c1=O
stibogluconate (10 µM): O=C(O)[C@@H]1[O][Sb](=[O])([O][Sb]2(=[O])[O][C@H]([C@H](O)CO)[C@H](O)[C@H](C(=O)O)[O]2)[O][C@H]([C@H](O)CO)[C@@H]1O (stereo partly specified)
ZM336372 (10 µM): Cc1ccc(NC(=O)c2cccc(N(C)C)c2)cc1NC(=O)c1ccc(O)cc1
GW441756 (2 µM): Cn1cc(/C=C2\C(=O)Nc3cccnc32)c2ccccc21
cisplatin (8 µM): N.N.[Cl][Pt][Cl]
darinaparsin (2 µM): C[As](C)SC[C@H](NC(=O)CC[C@H](N)C(=O)O)C(=O)NCC(=O)O
GSK0660 (5 µM): COC(=O)c1sccc1S(=O)(=O)Nc1ccc(Nc2ccccc2)cc1OC
sorafenib (2 µM): CNC(=O)c1cc(Oc2ccc(NC(=O)Nc3ccc(Cl)c(C(F)(F)F)c3)cc2)ccn1
AS-252424 (5 µM): O=C1NC(=O)/C(=C/c2ccc(-c3ccc(F)cc3O)o2)S1
SNS-032 (0.05 µM): CC(C)(C)c1cnc(CSc2cnc(NC(=O)C3CCNCC3)s2)o1

With cisplatin + ZM336372 the screen read COLO 792: 109; WM3619: 175; COLO 829: 24.1. sorafenib + cisplatin gave COLO 792: 143; WM3619: 108; COLO 829: 133. For GSK0660 + palbociclib the values were COLO 792: 205; WM3619: 141; COLO 829: 66.8; 501mel: 115. stibogluconate + GW441756 gave COLO 792: 39.8; WM3619: 77.2; COLO 829: 138; 501mel: 38.2. With darinaparsin + palbociclib the screen read COLO 792: 141; WM3619: 146; COLO 829: 114.

GW441756 + darinaparsin gave COLO 792: 84.6; WM3619: 144; COLO 829: 78.2. Results for GW441756 + palbociclib are COLO 792: 95.0; WM3619: 173; COLO 829: 81.6; 501mel: 69.4. palbociclib + ZM336372 gave COLO 792: 130; WM3619: 161; COLO 829: 108. For sorafenib + GW441756 the values were COLO 792: 48.5; WM3619: 85.9; COLO 829: 100; 501mel: 45.9. With AS-252424 + cisplatin the screen read COLO 792: 121; WM3619: 125; COLO 829: 215; 501mel: 159.

With darinaparsin + sorafenib the screen read COLO 792: 47.6; WM3619: 141; COLO 829: 130. GW441756 + AS-252424 gave COLO 792: 101; WM3619: 203; COLO 829: 114; 501mel: 222. For ZM336372 + AS-252424 the values were COLO 792: 57.0; WM3619: 122; COLO 829: 138; 501mel: 155. With darinaparsin + ZM336372 the screen read COLO 792: 102; WM3619: 115; COLO 829: 89.4. GSK0660 + AS-252424 gave COLO 792: 32.3; WM3619: 133; COLO 829: 108; 501mel: 26.6.

For GSK0660 + SNS-032 the values were COLO 792: 125; WM3619: 135; COLO 829: 79.0; 501mel: 109. With ZM336372 + SNS-032 the screen read COLO 792: 122; WM3619: 228; COLO 829: 87.0. For palbociclib + cisplatin the values were COLO 792: 198; WM3619: 107; COLO 829: 115. With GSK0660 + GW441756 the screen read COLO 792: 80.1; WM3619: 152; COLO 829: 83.3; 501mel: 144. With stibogluconate + GSK0660 the screen read COLO 792: 63.6; WM3619: 108; COLO 829: 126; 501mel: 108.

For sorafenib + SNS-032 the values were COLO 792: 183; WM3619: 128; COLO 829: 115. sorafenib + ZM336372 gave COLO 792: 33.5; WM3619: 119; COLO 829: 98.2. For AS-252424 + SNS-032 the values were COLO 792: 265; WM3619: 144; COLO 829: 26.0; 501mel: 42.2. Results for GSK0660 + ZM336372 are COLO 792: 87.3; WM3619: 104; COLO 829: 175; 501mel: 123. Results for SNS-032 + cisplatin are COLO 792: 304; WM3619: 179; COLO 829: 133.

For palbociclib + stibogluconate the values were COLO 792: 303; WM3619: 142; COLO 829: 71.4. With darinaparsin + GSK0660 the screen read COLO 792: 107; WM3619: 178; COLO 829: 55.5; 501mel: 119. palbociclib + SNS-032 gave COLO 792: 177; WM3619: 172; COLO 829: 128. Results for darinaparsin + SNS-032 are COLO 792: 309; WM3619: 136; COLO 829: 99.9. GW441756 + ZM336372 gave COLO 792: 84.4; WM3619: 126; COLO 829: 195; 501mel: 79.7.

With cisplatin + GSK0660 the screen read COLO 792: 12.3; WM3619: 121; COLO 829: 135; 501mel: 113. For palbociclib + AS-252424 the values were COLO 792: 145; WM3619: 165; COLO 829: 72.4; 501mel: 158. darinaparsin + cisplatin gave COLO 792: 111; WM3619: 121; COLO 829: 169. For GSK0660 + sorafenib the values were COLO 792: 31.1; WM3619: 108; COLO 829: 71.2; 501mel: 217. palbociclib + sorafenib gave COLO 792: 258; WM3619: 166; COLO 829: 101.

For stibogluconate + cisplatin the values were COLO 792: 129; WM3619: 114; COLO 829: 64.1. Results for SNS-032 + stibogluconate are COLO 792: 93.0; WM3619: 110; COLO 829: 239. With stibogluconate + sorafenib the screen read COLO 792: 38.9; WM3619: 91.0; COLO 829: 153. With cisplatin + GW441756 the screen read COLO 792: 83.6; WM3619: 120; COLO 829: 72.6; 501mel: 57.2.

Repeated from the top, 2 entries:

| Drugs | COLO 792 | WM3619 | COLO 829 | 501mel |
|---|---|---|---|---|
| cisplatin + ZM336372 | 109 | 175 | 24.1 | - |
| sorafenib + cisplatin | 143 | 108 | 133 | - |

Source: doi:10.1371/journal.pone.0140310, primary screening data, rounded.